Where a name gives a salt, the structure may show the parent alone. The list shows a part of the results. Many values rest on one well or one pass, so single values are uncertain.
Tests used:
Saos-2 = assay: cell viability (CCK-8) relative to DMSO control (% of control); higher = less cytotoxic; conditions: 10 µM; 48 h
U2OS = assay: as above; conditions: 10 µM; 48 h

SMILES	cell viability (Saos-2)	cell viability (U2OS)
CCc1cccc2c3c([nH]c12)C(CC)(CC(=O)O)OCC3 (configuration not stated) [Etodolac]	100	92.6
COc1ccc([C@@H]2Sc3ccccc3N(CCN(C)C)C(=O)[C@@H]2OC(C)=O)cc1 [Diltiazem . hydrochloride]	55.4	113
CCCC(=O)Nc1ccc(OCC(O)CNC(C)C)c(C(C)=O)c1 (configuration not stated) [Acebutolol . Hydrochloride]	90.6	80.9
NC[C@@H](O)c1ccc(O)c(O)c1 [L-Norepinephrine bitartrate monohydrate]	61.4	108
C[C@H]1[C@H](NC(=O)/C(=N\OC(C)(C)C(=O)O)c2csc(N)n2)C(=O)N1S(=O)(=O)O [Aztreonam]	66.2	108
CN1C(C(=O)Nc2ccccn2)=C(O)c2ccccc2S1(=O)=O [Piroxicam]	59.2	108
CC(=O)OCC(=O)[C@@]12OC3(CCCC3)O[C@@H]1C[C@H]1[C@@H]3CCC4=CC(=O)C=C[C@]4(C)[C@@]3(F)[C@@H](O)C[C@@]12C [Amcinonide]	120	98.1
CCOC(=O)[C@H](CCc1ccccc1)N[C@@H](C)C(=O)N1[C@H](C(=O)O)C[C@@H]2CCC[C@@H]21 [Ramipril]	70	117
C=C[C@H]1CN2CC[C@H]1C[C@H]2[C@H](O)c1ccnc2ccc(OC)cc12 [Quinine hydrochloride dihydrate]	60.6	132
CCC(=O)O[C@]1(C(=O)CCl)[C@@H](C)C[C@H]2[C@@H]3CCC4=CC(=O)C=C[C@]4(C)[C@@]3(F)[C@@H](O)C[C@@]21C [Clobetasol Propionate]	69.4	93.4
C[C@@H]1O[C@@H]1P(=O)(O)O [Fosfomycin Calcium]	111	102
O=C(O)c1ccc(-n2nc(-c3ccccc3O)nc2-c2ccccc2O)cc1 [Deferasirox]	83.7	75.1
CO/N=C(\C(=O)N[C@@H]1C(=O)N2C(C(=O)OCOC(=O)C(C)(C)C)=C(/C=C\c3scnc3C)CS[C@H]12)c1csc(N)n1 [Cefditoren Pivoxil]	114	65.8
C#C[C@]1(O)CC[C@H]2[C@@H]3CCC4=Cc5oncc5C[C@]4(C)[C@H]3CC[C@@]21C [Danazol]	68.1	92.8
CC1(C)O[C@@H]2C[C@H]3[C@@H]4CCC5=CC(=O)C=C[C@]5(C)[C@@]4(F)[C@@H](O)C[C@]3(C)[C@]2(C(=O)CO)O1 [Triamcinolone Acetonide]	98.6	83.3
O=c1[nH]c(=O)n([C@H]2C[C@H](O)[C@@H](CO)O2)cc1I [Idoxuridine]	67.8	99.1
C[C@@H]1NC(=O)[C@@H](N)CNC(=O)[C@H](C2CCNC(=N)N2)NC(=O)/C(=C/NC(N)=O)NC(=O)[C@H](CNC(=O)CC(N)CCCN)NC1=O.N=C1NCC[C@H]([C@@H]2NC(=O)/C(=C/NC(N)=O)NC(=O)[C@H](CNC(=O)C[C@@H](N)CCCN)NC(=O)[C@H](CO)NC(=O)[C@@H](N)CNC2=O)N1 [Capreomycin Sulfate]	116	106
Cc1cccc(CN2CCN(C(c3ccccc3)c3ccc(Cl)cc3)CC2)c1 (configuration not stated) [Meclizine Dihydrochloride]	108	103
CCCCN1CCCCC1C(=O)Nc1c(C)cccc1C (configuration not stated) [Bupivacaine hydrochloride monohydrate]	67	101
CC(=O)S[C@@H]1CC2=CC(=O)CC[C@]2(C)[C@H]2CC[C@@]3(C)[C@@H](CC[C@@]34CCC(=O)O4)[C@H]12 [Spironolactone]	65.9	114
CNCC[C@H](Oc1cccc2ccccc12)c1cccs1 [Duloxetine·HCl]	101	74.7
O=C(O)CCNC(=O)c1ccc(/N=N/c2ccc(O)c(C(=O)O)c2)cc1 [Balsalazide]	122	114
C[N+]1(C)[C@@H]2CC[C@H]1C[C@@H](OC(=O)C(O)c1ccccc1)C2 (some centres not stated) [Homatropine Methylbromide]	112	105
Clc1cccc(Cl)c1NC1=NCCN1 [Clonidine . hydrochloride]	61.4	119
Nc1nc2c(ncn2COC(CO)CO)c(=O)[nH]1 [Ganciclovir]	67.8	99.6
Nc1c2c(nc3ccccc13)CCCC2 [Tacrine·HCl]	54.7	110

Looked up by compound from above, 2 records:
SMILES	cell viability (Saos-2)	cell viability (U2OS)
CCC(=O)O[C@]1(C(=O)CCl)[C@@H](C)C[C@H]2[C@@H]3CCC4=CC(=O)C=C[C@]4(C)[C@@]3(F)[C@@H](O)C[C@@]21C [Clobetasol Propionate]	69.4	93.4
CCc1cccc2c3c([nH]c12)C(CC)(CC(=O)O)OCC3 (configuration not stated) [Etodolac]	100	92.6

Source: the supplement of paper PMC9433722
